Results: paper PMC9695642, “Conservation of Importin α Function in Apicomplexans: Ivermectin and GW5074 Target Plasmodium falciparum Importin α and Inhibit Parasite Growth in Culture” (International Journal of Molecular Sciences, 2022)
Results are given in words; binding and its absence hold for the method and conditions named. Some entries that bind do so weakly or less than the wild type. Where a sequence is shown, tags or fusion partners need not be part of it.

Target: T1, His-tagged Plasmodium falciparum importin α (Plasmodium falciparum) (UniProt Q8IAW0)
T1 sequence: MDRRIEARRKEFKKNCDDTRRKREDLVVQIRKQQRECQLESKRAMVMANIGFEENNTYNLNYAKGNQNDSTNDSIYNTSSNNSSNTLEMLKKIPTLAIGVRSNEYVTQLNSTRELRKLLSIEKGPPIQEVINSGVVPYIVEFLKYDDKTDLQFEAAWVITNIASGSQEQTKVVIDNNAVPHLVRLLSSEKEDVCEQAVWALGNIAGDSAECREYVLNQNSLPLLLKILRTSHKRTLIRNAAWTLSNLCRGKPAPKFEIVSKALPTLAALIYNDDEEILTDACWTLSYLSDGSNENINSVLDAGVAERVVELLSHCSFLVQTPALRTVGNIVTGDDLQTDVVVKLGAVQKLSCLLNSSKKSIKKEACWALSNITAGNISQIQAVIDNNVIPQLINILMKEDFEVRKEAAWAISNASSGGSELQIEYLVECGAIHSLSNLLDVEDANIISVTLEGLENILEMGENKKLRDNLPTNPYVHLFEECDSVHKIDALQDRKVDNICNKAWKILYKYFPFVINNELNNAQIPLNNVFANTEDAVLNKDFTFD
Assay: AlphaScreen or HTRF; IMPβ (30 nM) and IMPαs (30 nM) with increasing concentrations of ivermectin or GW5074 (inhibition by small molecules); both purified

biotinylated GST-MmIMPβ1 (Mus musculus importin β1) (from UniProt P70168 1-876)
binding: binds
